Values from PubChem BioAssay AID686937 (Drosophila RNAi Screening Center, 2013)
The deposit covers about 23,000 reagents; below is a random part of those with a known target gene and a result. 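Reduced-secretion tags in replicate 1 do not always agree with the z-scores; no criterion for assigning the tags was given.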 A plus sign joins genes that one reagent is predicted to hit. Not stated in the record: the amount of reagent.

Assay: 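Genes whose loss weakens secretory pathway function in fly cells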 (primary screen)
Cells: Drosophila S2 cells expressing secreted horseradish peroxidase
Knock-down reagent: long dsRNA against Drosophila genes
Timing: about 5.5 days (5 days dsRNA, then 12 h reporter induction)
Challenge: reporter expression induced after 5 days of dsRNA, read 12 h later; inducer not stated
Read-out: 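After 5 days of dsRNA and 12 h of reporter induction, medium peroxidase read by chemiluminescence and scored as per-plate z-score; higher values mean more reporter released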
Reading the numbers: z-score: higher = more reporter secreted into medium

Gene	DRSC id	z-score, replicate 1	z-score, replicate 2	z-score, replicate 3	z-score, replicate 4	phenotype, replicate 1
Tep5Psi (GeneID 35250)	DRSC02183	0.19	0.36			
Tep5Psi (GeneID 35250)	DRSC02184	0.48	0.25			
Eip74EF (GeneID 39962)	DRSC10613	-1.93	-1.34			reduced secretion
Eip74EF (GeneID 39962)	DRSC11160	0.45	-0.31			
Snoo (GeneID 5740414)	DRSC01008	0.7	0.12			
Snoo (GeneID 5740414)	DRSC03004	0.26	0.36			
Snoo (GeneID 5740414)	DRSC03035	0.45	0.33			
CG33060 (GeneID 39807)	DRSC09939	0.14	0.18			
Pvr (GeneID 34127)	DRSC03080	-1.63	-0.87			reduced secretion
CG34338 (GeneID 5740687)	DRSC17535	0.17	0.37			
Sap-r (GeneID 43662)	DRSC16849	0	0.2	0.13	0.38	
Sap-r (GeneID 43662)	DRSC21916	-1.03	-0.8			reduced secretion
TotM (GeneID 33764)	DRSC02355	0.47	0.33			
Rfk (GeneID 40936)	DRSC15454	0.61	0.65			
Cnot4 (GeneID 34416)	DRSC02830	-0.34	-0.63			
Cnot4 (GeneID 34416)	DRSC02831	-0.34	-0.56			
CG6051 (GeneID 43271)	DRSC15956	-1.26	-0.63			
CG12438 (GeneID 34202)	DRSC02167	0.5	0.44			
CG3500 (GeneID 37697)	DRSC04379	-0.25	-0.29			
CG10950 (GeneID 36942)	DRSC06020	0.13	0.09			
CG10376 (GeneID 35126)	DRSC02049	-0.03	-0.08			
Pgant8 (GeneID 39715)	DRSC10801	-0.55	-0.18			
CheB42b (GeneID 2768717)	DRSC22878	0.58	0.82			
Pli (GeneID 42821)	DRSC16792	0.07	0.26			
eIF2Bbeta (GeneID 31256)	DRSC18465	-0.05	-1.22			
BomT2 (GeneID 50208)	DRSC06631	0.4	0.18			
CG32241 (GeneID 317934)	DRSC08100	-0.03	0.45	0.3	0.27	
CG32241 (GeneID 317934)	DRSC21518	0.6	-0.37			
CG8635 (GeneID 35850)	DRSC07226	0.22	0.17			
CG6688 (GeneID 42716)	DRSC16094	0.23	0.26			
Capa (GeneID 43541)	DRSC15058	0.4	0.51			
snRNP-U1-70K (GeneID 33982)	DRSC03612	0.16	0.08	0.18	0.07	
snRNP-U1-70K (GeneID 33982)	DRSC22071	-1.17	-1.55			reduced secretion
SmD3 (GeneID 36306)	DRSC07553	-2.34	-3.44			reduced secretion
chas (GeneID 32748)	DRSC19508	-0.05	0.12			
chas (GeneID 32748)	DRSC19509	0.37	0.27			
Hexim (GeneID 41778)	DRSC15490	0.29	0.43			
luna (GeneID 2768719)	DRSC05253	0.8	0.28			
luna (GeneID 2768719)	DRSC06663	-2.92	-2.21			reduced secretion
luna (GeneID 2768719)	DRSC07336	0.23	0.14	0.49	0.37	
CG2680 (GeneID 31257)	DRSC18466	0.26	0.19			
CG30265 (GeneID 37622)	DRSC21592	0.24	-0.32			
RFeSP (GeneID 44390)	DRSC00702	-0.15	-1.11			
CG14657 (GeneID 40602)	DRSC12219	0.38	0.56			
CG14657 (GeneID 40602)	DRSC12243	0.33	0.19			
CG42299 + CG42300	DRSC19680	0.18	0.16			
CG42299 + CG42300	DRSC19815	0.35	0.37			
CG34436 (GeneID 5740743)	DRSC15164	0.39	0.44			
CG5245 (GeneID 41530)	DRSC15750	0.15	0.14			
mfr (GeneID 39016)	DRSC10543	0.2	0.27			
Oatp74D (GeneID 39954)	DRSC09491	0.5	0.03			
Oatp74D (GeneID 39954)	DRSC10883	0.18	0.37			
Smyd4-4 (GeneID 36299)	DRSC05956	0.25	0.15			
CG11700 (GeneID 31564)	DRSC17794	-7.33	-6			reduced secretion
Pink1 (GeneID 31607)	DRSC18361	0.49	0.49			
CG13054 (GeneID 39780)	DRSC09935	0.04	0.01			
Taf4 (GeneID 39765)	DRSC11297	-1.1	-1.09			
alpha-Est3 (GeneID 40907)	DRSC12615	0.21	0.29			
Rab18 (GeneID 44360)	DRSC18702	0.38	0.28			
CNBP (GeneID 37646)	DRSC04116	0.35	0.07			
CNBP (GeneID 37646)	DRSC04419	-0.8	0.14	0.35	-0.19	
CNBP (GeneID 37646)	DRSC21317	1.24	1.71			
CG2811 (GeneID 37988)	DRSC04318	0.45	-0.01			
CG18231 (GeneID 40026)	DRSC10307	0.12	-0.05			
Vha14-2 (GeneID 40748)	DRSC12145	-0.04	0.3			
CG4970 (GeneID 3772412)	DRSC02796	0.08	0.28			
RpS14b (GeneID 47219)	DRSC18711	-2.52	-2.94			reduced secretion
ppk15 (GeneID 43188)	DRSC14733	-0.43	-0.27			
CG14961 (GeneID 38414)	DRSC08420	0.16	0.26			
CG1314 (GeneID 33066)	DRSC20495	0.34	0.47			
PICK1 (GeneID 34677)	DRSC01268	0.4	0.41			
PICK1 (GeneID 34677)	DRSC02936	0.37	0.43			
tx (GeneID 43190)	DRSC16931	0.17	0.45			
cutlet (GeneID 44637)	DRSC00284	-0.07	0.13	-0.03	0.08	
Rad60 (GeneID 42748)	DRSC15580	0.27	0.28			
Swt1 (GeneID 32788)	DRSC20028	0.21	0.39			
Mco3 (GeneID 43134)	DRSC15926	0.31	0.29			
Ugt35E2 (GeneID 53506)	DRSC16083	0.54	0.69			
CG4239 (GeneID 32606)	DRSC19885	0.36	-0.37			
CG16700 (GeneID 32694)	DRSC19755	0.22	0.14			
CR1075 (GeneID 12798037)	DRSC12144	0.06	0.27			
CG13360 (GeneID 31025)	DRSC18536	0.17	0.61	-0.16	-0.23	
